PubChem BioAssay AID1259425 – University of Nebraska Medical Center | 2018
In all, the deposit lists about 14,000 reagents; shown is a part drawn at random. Reagent sequences are not shown. The record does not give: the time to read-out.

Aim: 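Compare each knockdown with KSR1 silencing using changes in marker transcripts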 (primary screen)
System: HCT116 human colon cancer cells
Reagents: siRNA pool against human genes, 50 nM siRNA
Detection: 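After 50 nM siRNA pool, branched-DNA assay measures six marker transcripts per well, minus blank, normalised to the geometric mean of two housekeeping transcripts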
Scale: BNIP3L mRNA: higher = more BNIP3L transcript after knockdown; NDRG1 mRNA: higher = more NDRG1 transcript after knockdown; BNIP3 mRNA: higher = more BNIP3 transcript after knockdown; ALDOC mRNA: higher = more ALDOC transcript after knockdown; ACSL5 mRNA: higher = more ACSL5 transcript after knockdown

Target gene	BNIP3L mRNA, set 1	NDRG1 mRNA, set 1	BNIP3 mRNA, set 1	ALDOC mRNA, set 1	ACSL5 mRNA, set 1
BRMS1L	0.152	0.321	0.24	0.153	0.539
CD2BP2	0.183	0.211	0.379	0.0385	0.41
SLC35D4	0.127	0.35	0.412	0.0507	0.201
SEMA5A	0.0828	0.472	0.334	0.0381	0.587
ASGR1	0.13	0.17	0.382	0.0666	0.181
RUNX1	0.0675	0.143	0.22	0.0103	0.168
CTPS2	0.0624	0.23	0.223	0.00866	0.208

Entries above whose gene name starts with S or s (2):
Target gene	BNIP3L mRNA, set 1	NDRG1 mRNA, set 1	BNIP3 mRNA, set 1	ALDOC mRNA, set 1	ACSL5 mRNA, set 1
SLC35D4	0.127	0.35	0.412	0.0507	0.201
SEMA5A	0.0828	0.472	0.334	0.0381	0.587

Additional reagents follow.
Target gene	BNIP3L mRNA, set 1	NDRG1 mRNA, set 1	BNIP3 mRNA, set 1	ALDOC mRNA, set 1	ACSL5 mRNA, set 1
TCIM	0.175	0.232	0.375	0.0409	0.306
KEAP1	0.0635	0.293	0.497	0.0834	0.126
PCDHB12	0.104	0.0612	0.289	0.00851	0.0825
GGNBP2	0.0869	0.499	0.394	0.0972	0.365
FOLR3	0.0882	0.046	0.188	0.0242	0.0859
CROCC	0.262	0.268	0.378	0.0748	0.126
ACTG1	0.125	0.241	0.267	0.0403	0.167
HAND1	0.12	0.207	0.399	0.00776	0.522
FAM50A	0.11	0.355	0.268	0.0174	0.22
TGIF2LX	0.105	0.25	0.463	0.00601	0.219
GTF2I	0.237	0.252	0.484	0.00367	0.342
CMC2	0.167	0.22	0.415	0.0141	0.157
BCAR1	0.146	0.287	0.263	0.0206	0.266
